Results: the supplement of paper PMC6078165

Test system: Hs578T
Experiment: relative JC-1 red fluorescence (viability) vs pre-drug, coculture with fibroblast (fraction); higher = more viable cancer cells
Experimental: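 JC-1 labelled TNBC cells cocultured 1:1 (1,500 cells each) with CellTrace Violet stained primary or stromal fibroblasts in 384-well plates in FluoroBrite medium, treated with one of 42 anticancer drugs at 0.1, 1, 10 or 100 uM. JC-1 red fluorescence (mitochondrial integrity in cancer cells only) was read by plate reader every 8 h for 72 h. Values are normalised to each well's pre-drug value. The stock of one drug was tenfold lower, so its dose labels may be too high.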

O=C1c2c(O)ccc(O)c2C(=O)c2c(NCCNCCO)ccc(NCCNCCO)c21 [Mitoxantrone]
relative JC-1 red fluorescence
Conditions | 8 h | 16 h | 24 h | 32 h | 40 h | 48 h | 56 h | 64 h | 72 h
0.1 µM | 0.867 | 0.7704 | 0.706 | 0.68 | 0.629 | 0.595 | 0.584 | 0.544 | 0.545
1 µM | 0.653 | 0.616 | 0.668 | 0.692 | 0.688 | 0.684 | 0.69 | 0.646 | 0.6332
10 µM | 0.706 | 0.824 | 0.867 | 0.804 | 0.733 | 0.637 | 0.535 | 0.49 | 0.413

relative JC-1 red fluorescence
Conditions | 8 h | 16 h | 24 h | 32 h | 40 h | 48 h | 56 h | 64 h | 72 h
0.1 µM, coculture fibroblast: C12385 | 0.76926 | 0.693 | 0.6666 | 0.59 | 0.548 | 0.524 | 0.507 | 0.502 | 0.501
0.1 µM, coculture fibroblast: H6013 | 0.8424 | 0.774 | 0.717 | 0.69 | 0.666 | 0.652 | 0.629 | 0.619 | 0.594
0.1 µM, coculture fibroblast: H6019 | 0.722 | 0.625 | 0.599 | 0.528 | 0.498 | 0.481 | 0.462 | 0.453 | 0.438
0.1 µM, coculture fibroblast: H6076 | 0.835 | 0.772 | 0.759 | 0.772 | 0.758 | 0.774 | 0.7705 | 0.7919 | 0.8017
0.1 µM, coculture fibroblast: H6231 | 0.825 | 0.755 | 0.688 | 0.681 | 0.626 | 0.613 | 0.577 | 0.557 | 0.546
0.1 µM, coculture fibroblast: HADF | 0.83 | 0.759 | 0.6897 | 0.629 | 0.5909 | 0.553 | 0.527 | 0.511 | 0.474
0.1 µM, coculture fibroblast: HCFa | 0.8058 | 0.717 | 0.657 | 0.614 | 0.562 | 0.544 | 0.507 | 0.493 | 0.459
0.1 µM, coculture fibroblast: HCPF | 0.883 | 0.7844 | 0.7115 | 0.685 | 0.639 | 0.616 | 0.594 | 0.554 | 0.547
0.1 µM, coculture fibroblast: HHSteC | 0.847 | 0.792 | 0.7265 | 0.6894 | 0.6443 | 0.61669 | 0.598 | 0.583 | 0.548
0.1 µM, coculture fibroblast: HMF | 0.845 | 0.763 | 0.724 | 0.715 | 0.673 | 0.667 | 0.642 | 0.627 | 0.618
0.1 µM, coculture fibroblast: HPFa | 0.87 | 0.829 | 0.752 | 0.703 | 0.674 | 0.649 | 0.614 | 0.594 | 0.559
0.1 µM, coculture fibroblast: HUF | 0.81 | 0.739 | 0.711 | 0.615 | 0.563 | 0.541 | 0.51 | 0.512 | 0.509
0.1 µM, coculture fibroblast: Hs27A | 0.8288 | 0.793 | 0.778 | 0.758 | 0.729 | 0.7135 | 0.692 | 0.685 | 0.637
0.1 µM, coculture fibroblast: Hs343T | 0.834 | 0.759 | 0.693 | 0.704 | 0.6632 | 0.6537 | 0.626 | 0.621 | 0.622
0.1 µM, coculture fibroblast: WS1 | 0.77001 | 0.672 | 0.64 | 0.568 | 0.533 | 0.522 | 0.507 | 0.52 | 0.525
1 µM, coculture fibroblast: C12385 | 0.4879 | 0.402 | 0.428 | 0.383 | 0.364 | 0.353 | 0.343 | 0.342 | 0.338
1 µM, coculture fibroblast: H6013 | 0.593 | 0.592 | 0.594 | 0.593 | 0.6 | 0.61 | 0.601 | 0.588 | 0.553
1 µM, coculture fibroblast: H6019 | 0.5182 | 0.486 | 0.521 | 0.464 | 0.464 | 0.455 | 0.455 | 0.45 | 0.435
1 µM, coculture fibroblast: H6076 | 0.645 | 0.5753 | 0.562 | 0.557 | 0.54 | 0.535 | 0.514 | 0.496 | 0.487
1 µM, coculture fibroblast: H6231 | 0.628 | 0.497 | 0.554 | 0.573 | 0.5422 | 0.545 | 0.532 | 0.522 | 0.527
1 µM, coculture fibroblast: HADF | 0.53434 | 0.54 | 0.5485 | 0.559 | 0.587 | 0.578 | 0.581 | 0.583 | 0.539
1 µM, coculture fibroblast: HCFa | 0.57639 | 0.5777 | 0.5722 | 0.5784 | 0.573 | 0.5922 | 0.579 | 0.576 | 0.531
1 µM, coculture fibroblast: HCPF | 0.6159 | 0.561 | 0.591 | 0.607 | 0.58 | 0.582 | 0.6131 | 0.581 | 0.591
1 µM, coculture fibroblast: HHSteC | 0.598 | 0.586 | 0.597 | 0.604 | 0.603 | 0.6 | 0.577 | 0.5724 | 0.5351
1 µM, coculture fibroblast: HMF | 0.601 | 0.534 | 0.538 | 0.542 | 0.52 | 0.507 | 0.505 | 0.486 | 0.477
1 µM, coculture fibroblast: HPFa | 0.645 | 0.577 | 0.584 | 0.606 | 0.624 | 0.629 | 0.624 | 0.623 | 0.59
1 µM, coculture fibroblast: HUF | 0.553 | 0.488 | 0.497 | 0.424 | 0.394 | 0.371 | 0.352 | 0.338 | 0.327
1 µM, coculture fibroblast: Hs27A | 0.661 | 0.6096 | 0.658 | 0.698 | 0.704 | 0.691 | 0.687 | 0.684 | 0.63
1 µM, coculture fibroblast: Hs343T | 0.655 | 0.55 | 0.536 | 0.533 | 0.492 | 0.475 | 0.454 | 0.435 | 0.433
1 µM, coculture fibroblast: WS1 | 0.436 | 0.388 | 0.41 | 0.356 | 0.331 | 0.315 | 0.301 | 0.3 | 0.295
10 µM, coculture fibroblast: C12385 | 0.306 | 0.346 | 0.4084 | 0.324 | 0.284 | 0.245 | 0.208 | 0.178 | 0.146
10 µM, coculture fibroblast: H6013 | 0.704 | 0.901 | 0.868 | 0.782 | 0.704 | 0.642 | 0.563 | 0.485 | 0.379
10 µM, coculture fibroblast: H6019 | 0.399 | 0.465 | 0.476 | 0.353 | 0.3 | 0.278 | 0.251 | 0.232 | 0.207
10 µM, coculture fibroblast: H6076 | 0.61 | 0.634 | 0.763 | 0.728 | 0.719 | 0.69 | 0.62 | 0.5573 | 0.487
10 µM, coculture fibroblast: H6231 | 0.715 | 0.778 | 0.804 | 0.833 | 0.725 | 0.663 | 0.553 | 0.471 | 0.413
10 µM, coculture fibroblast: HADF | 0.613 | 0.619 | 0.591 | 0.59215 | 0.5567 | 0.5161 | 0.454 | 0.401 | 0.319
10 µM, coculture fibroblast: HCFa | 0.629 | 0.806 | 0.786 | 0.715 | 0.745 | 0.721 | 0.687 | 0.726 | 0.612
10 µM, coculture fibroblast: HCPF | 0.59 | 0.578 | 0.665 | 0.774 | 0.754 | 0.744 | 0.688 | 0.636 | 0.552
10 µM, coculture fibroblast: HHSteC | 0.762 | 0.927 | 0.855 | 0.775 | 0.674 | 0.61 | 0.547 | 0.481 | 0.377
10 µM, coculture fibroblast: HMF | 0.568 | 0.604 | 0.732 | 0.747 | 0.728 | 0.681 | 0.631 | 0.592 | 0.542
10 µM, coculture fibroblast: HPFa | 0.7062 | 0.79 | 0.623 | 0.605 | 0.584 | 0.572 | 0.552 | 0.514 | 0.428
10 µM, coculture fibroblast: HUF | 0.391 | 0.446 | 0.437 | 0.339 | 0.322 | 0.3 | 0.266 | 0.256 | 0.226
10 µM, coculture fibroblast: Hs27A | 0.622 | 0.789 | 0.796 | 0.821 | 0.75 | 0.707 | 0.63 | 0.582 | 0.477
10 µM, coculture fibroblast: Hs343T | 0.576 | 0.6388 | 0.72 | 0.726 | 0.673 | 0.637 | 0.565 | 0.492 | 0.414
10 µM, coculture fibroblast: WS1 | 0.334 | 0.328 | 0.425 | 0.355 | 0.3 | 0.261 | 0.219 | 0.188 | 0.155

The reference is the same well before dosing, and untreated signal decays as well.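 Fibroblast labels denote human fibroblasts, mainly primary ones from uterus (C12385, HUF), lung (H6013), bone (Hs27A), adrenal (HADF) and skin (WS1), plus mammary HMF and breast cancer-associated Hs343T. Cancer cells are basal-like or mesenchymal-like triple-negative breast cancer lines. A hit is a response shift exceeding 3x replicate standard deviation. The tissue of the other fibroblasts is not given here.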
